Test results published in PMC8496311.
These are yes or no findings as the source states them, for the method shown. Binding seen in cells or lysates may run through a third protein.

Target: T1, Innexin 2 (Drosophila (endogenous in ovary)) (UniProt Q9V427)
T1 sequence: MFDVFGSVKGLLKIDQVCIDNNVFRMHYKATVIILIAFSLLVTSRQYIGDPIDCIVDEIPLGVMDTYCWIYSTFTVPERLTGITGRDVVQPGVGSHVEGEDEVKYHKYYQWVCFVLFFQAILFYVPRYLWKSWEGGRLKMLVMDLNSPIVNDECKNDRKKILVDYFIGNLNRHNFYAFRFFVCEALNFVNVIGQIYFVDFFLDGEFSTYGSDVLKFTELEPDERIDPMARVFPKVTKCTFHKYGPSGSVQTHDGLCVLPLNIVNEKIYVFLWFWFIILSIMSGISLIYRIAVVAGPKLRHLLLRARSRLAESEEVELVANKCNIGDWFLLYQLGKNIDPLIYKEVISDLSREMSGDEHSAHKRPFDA
Assay: proximity ligation; fixed (4% PFA) whole-mount Drosophila ovaries; primary antibodies against the two endogenous proteins, goat anti-guinea pig IgG conjugated with Plus oligonucleotide (Duolink); punctate signals counted in single confocal slices

B1: βPS-Integrin (receptor, UniProt P11584 29-846)
chain: QKAAKLTAVSTCASKEKCHTCIQTEGCAWCMQPDFKGQSRCYQNTSSLCPEEFAYSPITVEQILVNNKLTNQYKAELAAGGGGSAMSGSSSSSYSSSSSSSSFYSQSSSGSSSASGYEEYSAGEIVQIQPQSMRLALRVNEKHNIKISYSQAEGYPVDLYYLMDLSKSMEDDKAKLSTLGDKLSETMKRITNNFHLGFGSFVDKVLMPYVSTIPKKLEHPCENCKAPYGYQNHMPLNNNTESFSNEVKNATVSGNLDAPEGGFDAIMQAIACRSQIGWREQARRLLVFSTDAGFHYAGDGKLGGVIAPNDGECHLSPKGEYTHSTLQDYPSISQINQKVKDNAINIIFAVTASQLSVYEKLVEHIQGSSAAKLDNDSSNVVELVKEEYRKISSSVEMKDNATGDVKITYFSSCLSNGPEVQTSKCDNLKEGQQVSFTAQIQLLKCPEDPRDWTQTIHISPVGINEVMQIQLTMLCSCPCENPGSIGYQVQANSCSGHGTSMCGICNCDDSYFGNKCECSATDLTSKFANDTSCRADSTSTTDCSGRGHCVCGACECHKRPNPIEIISGKHCECDNFSCERNRNQLCSGPDHGTCECGRCKCKPGWTGSNCGCQESNDTCMPPGGGEICSGHGTCECGVCKCTVNDQGRFSGRHCEKCPTCSGRCQELKDCVQCQMYKTGELKNGDDCARNCTQFVPVGVEKVEIDETKDEQMCKFFDEDDCKFMFKYSEQGELHVYAQENKECPAKVFMLGIVMGVIAAIVLVGLAILLLWKLLTTIHDRREFARFEKERMNAKWDTGENPIYKQATSTFKNPMYAGK
Q: For B1, which binding is on record?
A: Its binding is “no binding”.
